Among all 52,000 sequences or so, about 210 (0.4%) were called active.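 The calls were made as follows: active = gene whose silencing raises cell survival under the drug, median off-target-corrected z-score across its silencing RNAs 2 or more; inactive = the rest.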 The list shows a part of the results.
Experiment: Resistance to Poly (ADP-Ribose) Polymerase inhibitor: Gene Identification via Genome-wide siRNA Screen
Conditions: mouse BRCA2 R2336H ES cells, olaparib, CellTiter-Glo viability; stronger effect = higher value
Method in brief: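 Mouse BRCA2 R2336H ES cells were reverse-transfected with siRNA (20 nM final), treated at 48 h with 500 nM olaparib, and read by CellTiter-Glo after 72 h. Scores: MAD-based z per siRNA, median per gene, seed off-target correction.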

Row | Sequence | z-score
1 | GGCCUGCCUUUUUAUCUUGTT against Rrs1 | inactive: -0.129
2 | GGAAGAAGGUACAUUUCAGTT against 4933417L02Rik | inactive: -1.29
3 | GGAUAUGGAGAGAGAUUUATT against 1700102P08Rik | inactive: -0.0905
4 | CGAGGAAUAGAUUUUUUGATT against Twistnb | inactive: -2.66
5 | GGUUCAAAACUACACACACTT against Sp9 | inactive: -2.32
6 | GGCAGUGAUGUUUCUCUCGTT against 1110012D08Rik | inactive: -0.786
7 | GAGAGUAAAGAGCCGUUCUTT against Ly6i | inactive: 2.11
8 | GGAGGAUGACAAAAUCUAUTT against 2310020H19Rik | inactive: 0.284
9 | GGAAGUUCUAGAAAGGUUGTT against Tapbp | inactive: 2.01
10 | GGGAAAUCUCUGUUGGACATT against Akr1c13 | inactive: -0.333
11 | GGCAAACCUUCUCUAAUUUTT against Nif3l1 | inactive: -1.25
12 | GCUCUGGUGAAUCCAUUGATT against Mid2 | inactive: -1.88
13 | CGACUGUGGAAGGUUUGGUTT against 1700021K19Rik | inactive: 1.61
14 | GCAAAUUGUCAACAUACUUTT against Slc3a2 | inactive: -0.852
15 | CCCUGUCUUUCCUAGGCCATT against BC025519 | inactive: -0.142
16 | GCCCUUAUUUACUAACAUCTT against 1500015L24Rik | inactive: 1.35
17 | CCCAAUUAGGCUAUGCUAATT against Amfr | inactive: 0.594
18 | GGUCAACCUUGAACUAAUATT against AW494914 | inactive: 0.231
19 | GUUCCUGCUGAUCAAGGACTT against Ndnl2 | inactive: -1.51
20 | GCAAAAGUAAGGAGUCUAUTT against Clcn4-2 | inactive: -2.95
21 | CGUCAAUAAUCUAUAUAGCTT against Blm | inactive: 2.09
22 | GGCACAGAACAUUUAAUUGTT against Mefv | inactive: -0.522

Row | Sequence | z-score
23 | GGUGAUAAAAGAUUAGAAGTT against Nckipsd | inactive: 0.47
24 | GCUUAUAAAAGACUUACUGTT against Sec24b | inactive: -0.327
25 | GGCACCUUAAUGCUGACUUTT against Sdc4 | inactive: -0.606
26 | GGUUUAUGAGGAAAAGAAGTT against Svs6 | inactive: 0.206
27 | GGCAUAUAGAAACUGGUAATT against Npy6r | inactive: 0.0679
28 | CCAAGGCCAUCUCAUUUUCTT against Olfr749 | inactive: 0.227
29 | GGAAUGAAUUCAGAGCAUGTT against Mtap6 | inactive: 0.274
30 | GAUUCAGCCAUGUGGAACATT against Gm1313 | inactive: -0.324
31 | CGAAAGCUUCCGAAUCUUCTT against Rshl1 | inactive: -0.318
32 | GGAACAUGGACACCACACUTT against 2010013E08Rik | inactive: -1.95
33 | GGAUUACCUAAAUUUAGGATT against A330009G12Rik | inactive: 0.148
34 | CGAAAAUCAAGGGAGCUCATT against Rnf19 | inactive: -0.128
35 | GGGUGAGAGAUCCCAAGUUTT against 4931420D14Rik | inactive: -2.98
36 | GGAGCAAAGCUAAAUGUUGTT against 3732409C05Rik | inactive: 0.699
37 | CCGGAUUGCACAUCAUCGATT against 4930413P14Rik | inactive: -1.29
38 | GGAAGGAUUGGGUUAUAGATT against Bat4 | inactive: -0.305
39 | GAAAUGGAACGGUGCCACATT against Defb9 | inactive: 0.843
40 | GGCUCAAGCGAAAAGCAGATT against Serping1 | inactive: -0.778
41 | GGAUGAAGAGGAUUCAUUGTT against Pde4a | inactive: 0.4
42 | GCAGAACAUCCGUUCUCAGTT against 1110061L23Rik | inactive: 1.49
43 | GACAAUGCAAACUUUUGGGTT against V1re7 | inactive: 0.404
44 | GGAGGUAAAGCUAAGUAAATT against Gtf3c2 | inactive: -0.641

Row | Sequence | z-score
45 | GGAGUAGUAGCUAUUAUAUTT against Kctd9 | inactive: 0.823
46 | GGUUCUGGCUCACAUUCACTT against H2-M3 | inactive: -1.08
47 | CGCGUGAAAGGUUUGAGAGTT against Cd24a | inactive: 0.0936
48 | GUUUGUCUAGCUUCAGAUGTT against Rims4 | inactive: -0.258
49 | GGUGCAUGAUUUCAGAAUATT against E430018M08Rik | inactive: 0.847
50 | GGUCUCAAGUUUUACAUUCTT against Prss35 | inactive: 0.751
51 | GCUUUUAGGGAUUAUUCAGTT against Zfp606 | inactive: -0.812
52 | CCCAUCGAUCCAUCACAUUTT against Olfr63 | inactive: 0.257
53 | GGUAGUCACUAUCCUGAUUTT against Olfr1086 | inactive: -0.188
54 | CCUGAUAGUCUUGAAGAUGTT against Orm2 | inactive: 0.102
55 | GGCUCGAGAGAAGAAGUACTT against Gjb5 | inactive: 1.43
56 | CCCUAAAGAGUGGGAUGUATT against Pi15 | inactive: -0.335
57 | GCUUUUCAGUAACUGUCAGTT against Ccrl2 | inactive: -0.38
58 | GGCCUGCUAUAUGCAUUCCTT against Krtap12-1 | inactive: 1.1
59 | GGCUUAUCAGUCCAUGAAGTT against BC022224 | inactive: 1.93
60 | GGACAAUGAGCUUGAAUACTT against Ccne1 | inactive: 2.81
61 | GGUGCCAAUCCUUUGGACATT against 4930590J08Rik | inactive: -0.641
62 | GGGAAAACUUGGAUAUUCUTT against AW146242 | inactive: -0.747
63 | GCUGACCCAGCUAUGUACUTT against 4930519N13Rik | inactive: -0.26
64 | GGAUUGCAUUAGGAAAGAATT against Fancl | inactive: 0.12
65 | GCUUUGCAAUUCACAGGGATT against Abpa | inactive: 0.746
66 | GGACACACUCUACUUCCCATT against Mrgprg | inactive: 0.474

4 entries from above in another layout:
Row	Sequence	z-score
59	GGCUUAUCAGUCCAUGAAGTT against BC022224	inactive: 1.93
60	GGACAAUGAGCUUGAAUACTT against Ccne1	inactive: 2.81
61	GGUGCCAAUCCUUUGGACATT against 4930590J08Rik	inactive: -0.641
62	GGGAAAACUUGGAUAUUCUTT against AW146242	inactive: -0.747

— PubChem BioAssay AID1347423 (Functional Genomics Laboratory (NCATS/FGL), 2020)
